Three molecules from patent US20160031942A1 (LONDON HEALTH SCIENCES CENTRE RESEARCH, published 2016) can be followed below.

This assay addresses T1, Recombinant protein RHAMM-CT (truncated RHAMM, carboxy terminus containing the HA binding domain, amino acids 706-766) (Mus musculus (Mouse)) (UniProt Q00547).
T1 sequence: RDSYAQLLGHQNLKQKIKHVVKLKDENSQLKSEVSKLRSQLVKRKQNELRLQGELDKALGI
The experiment in a line: SPR screening (ProteON XPR36), RHAMM immobilised, peptide injected.

No constants are given. Whether binding was seen depends on the method and setting. Where a sequence is shown, tags or fusion partners need not be part of it.

For the molecule GEFEEEEGEDEA [SEQ ID NO 10 (tubulin-derived peptide containing the EEXEDZ motif)], the binding entry is on record as “no binding (tested: 10 µM)”. Next, DSADGEDEGEEY [SEQ ID NO 2 (tubulin-derived peptide containing the DEXEEZ motif)]: “no binding (tested: 10 µM)”; IDSYEDEDEGEE [SEQ ID NO 4 (tubulin-derived peptide containing the DEXEEZ motif)]: “no binding (tested: 10 µM)”.
